In PubChem BioAssay AID2685 (National Center for Advancing Translational Sciences (NCATS), 2010) one finds cell number change and AC50 data, which are given here for 18 molecules.

Some of the results follow. Further columns of the screen follow, without active or inactive calls. Compounds called inactive in the main read-out are mostly missing here. Words in brackets tell the shape of the fitted curve; partial curves, single points and poor fits give uncertain potencies.

The term AC50 denotes the concentration giving half of the maximal activity seen. A high value points to weaker potency.

This test in a line: qHTS Assay for Lipid Storage Modulators in Drosophila S3 Cells.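 On cell number change: cells counted by Cell Tracker Red CMTPX staining in the red channel.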 Particulars: BODIPY lipid droplet fluorescence, 18-24 h; for cell number change: measured here: cell count max response, cells fed with added oleic acid. An outline of the steps: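 Drosophila S3 cells loaded with oleic acid (400 uM, as added) and compounds at several concentrations; lipid droplets imaged by 488-nm laser-scanning cytometry, 500–530 nm intensity and object ratio to cell channel. Percent activity normalized to 20 uM Triacsin C.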
Background: In qHTS, concentration-response curves come from the screen itself.

Setting [1] is: measured here: cell number channel AC50, cells fed with added oleic acid.
Where [2] appears, read: measured here: lipid fluorescence (Fed channel) AC50, cells fed with added oleic acid.

Consider `COc1cccc(NC(=O)Nc2ccc3nc(C)c(C)nc3c2)c1`, for which the cell number change came out at 24.9%.

For the molecule `O=C(C1CCCN(CCCc2ccccc2)C1)N1CCCCCC1` (centres undefined), the AC50 under setting [1] was 0.517 µM [rising, partial curve, poor fit].

With `CN(CC(=O)Nc1ccc(OC(F)(F)F)cc1)C(=O)Cc1c(Cl)cccc1Cl`, the cell number change came out at 14.9%. Further, the AC50 under setting [2] is 6.51 µM [falling, single point].

Regarding `C=C(C)Cn1c(NCCC)nc2c1c(=O)n(C)c(=O)n2C`, the cell number change is -5.39%.

For `Cc1ccnc(NS(=O)(=O)c2ccc(NC(=O)CCS(=O)(=O)c3ccccc3)cc2)n1`, the cell number change turned out to be 48.8%. Also, the AC50 under setting [1] was 9.2 µM [rising, partial curve].

On to `O=C(NC1CCN(C(=O)NCc2ccccc2)CC1)c1cccc(F)c1`, for which the AC50 under setting [2] was 25.9 µM [falling, partial curve].

As to `Cc1ccnc(NS(=O)(=O)c2ccc(NC(=O)CC(C)c3ccccc3)cc2)n1` (centres undefined), the cell number change was found to be 4.76%. In addition, the AC50 under setting [2] is 29.1 µM [rising, single point].

In the case of `CCOC(=O)CC1CCCCN1C(=O)c1ccc2nc(CCOC)oc2c1` (centres undefined), the cell number change came to 18.5%.

In the case of `COc1ccc(C2c3[nH]c4ccccc4c3CCN2CCCn2cccn2)c(C)c1C` (centres undefined), the cell number change was found to be 23.7%. Under setting [2], the AC50 is 0.731 µM [rising, full curve, poor fit].

Regarding `CCn1c(C)nc2cc(C(=O)N/N=C/c3cccc(OC)c3O)ccc21`, the cell number change was -51.6%. Further, the AC50 under setting [1] was 29.1 µM [falling, single point]. In addition, under setting [2], the AC50 was 29.1 µM [falling, single point].

As to `CC(NCC(=O)Nc1cc(S(=O)(=O)N2CCOCC2)ccc1N1CCOCC1)c1ccco1` (centres undefined), the cell number change was determined as 1.13%. The AC50 under setting [2] was 0.461 µM [falling, single point].

With `c1ccc2nc3c(nc2c1)sc1nc2ccccc2n13`, the cell number change came out at 5.6%. Besides, the AC50 under setting [2] is 0.58 µM [rising, single point].

In the case of `Cc1cc(NC(=O)c2cccc(C)c2[N+](=O)[O-])no1`, the cell number change came to 14.7%. Also, under setting [2], the AC50 is 29.1 µM [rising, single point].

Consider `Oc1ccc(Br)cc1-c1cc(-c2ccc(Cl)cc2)n[nH]1`, for which the cell number change was -91.5%. In addition, the AC50 under setting [1] is 20.6 µM [falling, partial curve]. Further, the AC50 under setting [2] is 29.1 µM [falling, partial curve].

As for `CCC(=O)NCCc1nc2cc(NC(=O)Nc3ccccc3)ccc2n1C`, under setting [2], the AC50 was 0.58 µM [rising, single point].

With `Cc1ccc(SCCNC(=S)Nc2cc(C)ccc2C)cc1`, the cell number change was 58.1%. Also, under setting [1], the AC50 is 29.1 µM [rising, single point].

Consider `O=C(Nc1c(F)cc(F)cc1Br)c1ccco1`, for which the cell number change was -74.4%. Further, the AC50 under setting [1] is 16.4 µM [falling, partial curve]. Further, the AC50 under setting [2] was 16.4 µM [falling, partial curve].

For the molecule `Cc1cccc(NS(=O)(=O)c2ccc(C3CCCCC3)cc2)n1`, the cell number change was -24%. Moreover, the AC50 under setting [1] is 0.651 µM [falling, full curve, poor fit]. Also, the AC50 under setting [2] is 2.59 µM [falling, partial curve].
